Laboratory results reported in PubChem BioAssay AID651640 (Broad Institute, 2012).
The whole screen tested about 350,000 compounds, of which about 6,000 (1.7%) were called active. The inconclusive results got no clear call from the source; some entries with a clear call stand among them for comparison. Rule as the data show it: active = CPE inhibition above about 20% (passing the limit was not always enough); inconclusive = no clear call, values can overlap the other calls; tested in BHK-21 cells.

Experiment: protection of cells from dengue 2 killing – plate reader, single concentration, primary screen (AID 651640);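 also: 0% = median of neutral control wells and 100% = median of positive control wells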
Conditions: DENV2-infected cells, cytopathic effect rescue, at 9.99 µM, stronger effect = higher value

SMILES | CPE inhibition
CO[C@@H]1CN(C)C(=O)c2ccc(NC(=O)C3CC3)cc2OC[C@@H](C)N(C(C)=O)C[C@@H]1C | inconclusive: 25.4%
Cc1noc(C)c1NC(=O)N(C)C[C@@H]1Oc2cc(C#CCN(C)C)ccc2S(=O)(=O)N([C@H](C)CO)C[C@H]1C | inconclusive: 21.7%
CO[C@@H](C(=O)N(C)C[C@@H]1OCc2ccccc2-c2c(n(C)c3ccccc23)C(=O)N([C@@H](C)CO)C[C@@H]1C)c1ccccc1 | inactive: 2.37%
Cc1ccc(S(=O)(=O)N(C)C[C@@H]2OCCCC[C@@H](C)Oc3ccc(NC(=O)Nc4ccccc4)cc3C(=O)N([C@H](C)CO)C[C@H]2C)cc1 | inactive: -5.15%
O=C(C[C@@H]1C[C@@H]2c3cc(NC(=O)C4CCC4)ccc3O[C@@H]2[C@H](CO)O1)NCCc1ccccc1 | inconclusive: 52.2%
O=C(Nc1ccc(O)cc1)c1ccc2c(c1)C(=O)N(Cc1cccnc1)C2=O | active: 22.4%
COCc1cccc(-c2csc(C(C)(O)c3cccc(OC)c3)n2)c1 (stereo not given) | inconclusive: 67.1%
CCOC(=O)C1=C(C)C(c2ccc(OC)cc2)NC(=O)N1 (stereo not given) | inconclusive: 29.5%
COc1ccc(NC(=O)N(C)C[C@H]2Oc3ccc(NC(=O)Nc4ccc5c(c4)OCO5)cc3CC(=O)N([C@@H](C)CO)C[C@@H]2C)cc1 | inactive: -11.4%
O=C(C[C@@H]1CC[C@@H]2[C@H](COC[C@@H](O)CN2C(=O)C2CCCC2)O1)NCc1ccncc1 | inactive: 3.85%
CCC(=O)N(C)C[C@H]1Oc2cc(-c3ccccc3)ccc2S(=O)(=O)N([C@H](C)CO)C[C@H]1C | inactive: 2.57%
COc1ccc(CN2CCN(C(=O)c3ccc4nc(N5CCOCC5)sc4c3)CC2)c(OC)c1OC | inconclusive: 29.2%
O=S(=O)(/C=C/c1ccccc1)N1CCOCC1 | inconclusive: 24.3%
COc1cc(-c2ccc(N3C(c4ccsc4)=Cc4ccc(F)cc4C3c3c[nH]c4ccc(C#N)cc34)cc2)cc(OC)c1OC (stereo not given) | inconclusive: 65.1%
O=S1(=O)CCC(N=Cc2ccc(-c3ccc(Cl)cc3)o2)C1 (stereo not given) | inconclusive: 22.4%
O=C(Nc1ccccc1)N1C[C@H]2[C@@H](c3ccccc31)[C@H](CO)N2C(=O)c1ccccc1F | inactive: -4.23%
O=C(CN1C2CCCC1CC(NC(=O)C1CCCCC1)C2)Nc1ccccc1 (stereo not given) | inconclusive: 28.2%
COc1cccc(S(=O)(=O)N[C@@H]2CC[C@H](CC(=O)NC3Cc4ccccc4C3)O[C@H]2CO)c1 | inactive: -1.65%
CCC(=O)N1CC[C@@H]2[C@H](CO)Nc3ccc(-c4cccc(C#N)c4)cc3[C@@H]21 | active: 137%
Cc1ncc(CO)c(/C=N/NC(=O)c2ccccc2Br)c1O | inactive: 8.03%
COc1ccc(NC2CCCN(C(=O)COc3ccc(C(C)=O)cc3)C2)cc1 (stereo not given) | inconclusive: 43.5%
O=[N+]([O-])c1ccc(OCCCCCN2CCOCC2)cc1 | active: 26.3%
COc1ccc(-c2ccc([C@H]3[C@H](C#N)N(C(=O)c4cccnc4)[C@H]3CO)cc2)cc1 | inconclusive: 21.5%

SMILES | CPE inhibition
CC1CCC2(CC1)NC(=O)N(CC(=O)Nc1sc3c(c1C(N)=O)CCC3)C2=O (stereo not given) | inconclusive: 23.1%
COCCNc1nc(Nc2ccc(C)cc2C)c2sccc2n1 | inconclusive: 37.3%
Cc1nc(C)c(-c2csc(Nc3ncccc3C)n2)s1 | inconclusive: 55%
COc1ccc(C#Cc2c(-c3ccc(OC)cc3)oc3ccc(-c4ccc5c(c4)OCO5)cc23)cc1 | inconclusive: 81.8%
C[C@H](CO)N1C[C@H](C)[C@H](CN(C)C(=O)Nc2ccccc2)Oc2c(NC(=O)Nc3ccccc3)cccc2C1=O | inactive: -1.2%
CCOC(=O)c1c(NC(=O)c2ccno2)c2cc([N+](=O)[O-])ccc2n1C | active: 84.3%
CC(C)(C)c1ccc(SC2=C[C@@]3(O)CC[C@@H](O)[C@@](Sc4ccc(C(C)(C)C)cc4)(C2=O)[C@H]3O)cc1 | inconclusive: 46.8%
CC1CCN(C(=O)CSc2nc3c(c(=O)n2C)SC(C)C3)CC1 (stereo not given) | inconclusive: 25.1%
C[C@@H]1CCCCO[C@@H](CN(C)Cc2ccc(C(=O)O)cc2)[C@H](C)CN([C@@H](C)CO)C(=O)c2cc(NS(=O)(=O)c3cn(C)cn3)ccc2O1 | inactive: 8.64%
C[C@@H]1CN([C@@H](C)CO)S(=O)(=O)c2ccc(C#Cc3ccccc3)cc2O[C@H]1CN(C)C(=O)c1ccccn1 | inconclusive: 64.2%
COc1ccc(NC(=O)Nc2ccc3c(c2)C(=O)N([C@@H](C)CO)C[C@H](C)[C@H](CN(C)S(=O)(=O)c2cn(C)cn2)OCCCC[C@@H](C)O3)cc1 | inconclusive: 20.4%
COc1ccc(C(CNC(=O)c2ccc(S(=O)(=O)Nc3ccccc3OC)cc2)N2CCCC2)cc1 (stereo not given) | inconclusive: 35.3%
CN1CCN(C(=O)c2ccc3c(c2)S(=O)(=O)c2ccccc2C3=O)CC1 | active: 63.1%
C[C@H](CO)N1C[C@H](C)[C@@H](CN(C)C(=O)c2ccc(F)cc2)Oc2ncc(C#C[C@@H](C)O)cc2C1=O | inconclusive: 44.3%
CC(=O)c1cccc(NC(=O)c2ccc(NC(=O)CCS(=O)(=O)c3cccs3)cc2)c1 | active: 27.9%
Cc1cc(N2CCN(c3ccccc3)CC2)nc2ccccc12 | inactive: -0.878%
CSc1cccc(NC(=O)CCn2c(=O)c3cccn3c3cccnc32)c1 | inconclusive: 31.7%
C[C@@H]1CN([C@@H](C)CO)C(=O)c2cccc(NS(=O)(=O)c3ccc(F)cc3)c2O[C@H]1CN(C)C(=O)NC1CCCCC1 | inconclusive: 40.3%
CC(C)(C)C(CCl)C(=O)NN=C(c1ccccc1)c1ccccc1 (stereo not given) | inconclusive: 64.7%
COCC(=O)Nc1ccc2c(c1)C(=O)N(C)[C@H]1CC[C@@H](CC(=O)Nc3ccccc3)O[C@H]1CO2 | inactive: -2.11%
COCCCNC(=S)N(CCCN(C)C)Cc1cc2cc3c(cc2[nH]c1=O)OCCO3 | inconclusive: 21.2%
C[C@H](CO)N1C[C@H](C)[C@H](CN(C)C(=O)CCCN(C)C)OCCCC[C@H](C)Oc2ccc(NC(=O)Cc3ccccc3)cc2C1=O | active: 98.2%

A second format for three compounds above.

| SMILES | CPE inhibition |
| --- | --- |
| COc1ccc(C(CNC(=O)c2ccc(S(=O)(=O)Nc3ccccc3OC)cc2)N2CCCC2)cc1 (stereo not given) | inconclusive: 35.3% |
| CN1CCN(C(=O)c2ccc3c(c2)S(=O)(=O)c2ccccc2C3=O)CC1 | active: 63.1% |
| C[C@H](CO)N1C[C@H](C)[C@@H](CN(C)C(=O)c2ccc(F)cc2)Oc2ncc(C#C[C@@H](C)O)cc2C1=O | inconclusive: 44.3% |
